This assay has as its system F. varium KYA 8501. Put plainly: MIC, antibacterial spectrum (anaerobic bacteria). It counts as cell-based. Conditions: Fusobacterium varium, KYA8501.

In patent publication EP0221541A2, “Quinolonecarboxylic acid derivatives and their preparation” (KYORIN PHARMACEUTICAL CO., LTD., priority 1985, dated 1987) one finds MIC data, which are given here for one compound.

Values after ≈ are worked out from the molar mass of the structure shown.

Turning to `O=C(O)c1cn(C2CC2)c2cc(N3CCNCC3)c(F)cc2c1=O` [CPFX, Ciprofloxacin, reference compound], the MIC (usually the lowest concentration that inhibits growth of the organism) worked out at 25 µg/mL (≈ 75.4 µM).
